According to paper doi:10.1101/434571:
Results are given in words; binding and its absence hold for the method and conditions named. Binding seen in cells or lysates may run through a third protein. Some binding calls cover weakened binding; strength is not graded here. Sequences can lack the tags named with a protein. Blank lines part the entries; values can stand above or below the molecule they belong to.

Chains of the proteins cited; added tags and fusions are not shown.
UniProt Q3LS21: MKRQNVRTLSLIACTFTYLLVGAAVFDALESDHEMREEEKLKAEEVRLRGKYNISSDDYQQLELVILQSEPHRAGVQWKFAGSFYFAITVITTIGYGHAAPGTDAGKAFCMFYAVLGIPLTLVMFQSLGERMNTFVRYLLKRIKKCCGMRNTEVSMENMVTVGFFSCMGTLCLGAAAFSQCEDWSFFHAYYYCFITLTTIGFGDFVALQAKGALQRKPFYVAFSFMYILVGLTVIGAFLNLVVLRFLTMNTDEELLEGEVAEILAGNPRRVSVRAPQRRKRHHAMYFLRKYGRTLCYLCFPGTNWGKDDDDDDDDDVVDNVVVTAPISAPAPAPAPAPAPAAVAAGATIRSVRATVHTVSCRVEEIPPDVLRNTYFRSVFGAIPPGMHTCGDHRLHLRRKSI

Assays:
[1] = target: T1, Flag-tagged rat KCC2 (rat) (UniProt Q63633); assay: co-IP
T1 sequence: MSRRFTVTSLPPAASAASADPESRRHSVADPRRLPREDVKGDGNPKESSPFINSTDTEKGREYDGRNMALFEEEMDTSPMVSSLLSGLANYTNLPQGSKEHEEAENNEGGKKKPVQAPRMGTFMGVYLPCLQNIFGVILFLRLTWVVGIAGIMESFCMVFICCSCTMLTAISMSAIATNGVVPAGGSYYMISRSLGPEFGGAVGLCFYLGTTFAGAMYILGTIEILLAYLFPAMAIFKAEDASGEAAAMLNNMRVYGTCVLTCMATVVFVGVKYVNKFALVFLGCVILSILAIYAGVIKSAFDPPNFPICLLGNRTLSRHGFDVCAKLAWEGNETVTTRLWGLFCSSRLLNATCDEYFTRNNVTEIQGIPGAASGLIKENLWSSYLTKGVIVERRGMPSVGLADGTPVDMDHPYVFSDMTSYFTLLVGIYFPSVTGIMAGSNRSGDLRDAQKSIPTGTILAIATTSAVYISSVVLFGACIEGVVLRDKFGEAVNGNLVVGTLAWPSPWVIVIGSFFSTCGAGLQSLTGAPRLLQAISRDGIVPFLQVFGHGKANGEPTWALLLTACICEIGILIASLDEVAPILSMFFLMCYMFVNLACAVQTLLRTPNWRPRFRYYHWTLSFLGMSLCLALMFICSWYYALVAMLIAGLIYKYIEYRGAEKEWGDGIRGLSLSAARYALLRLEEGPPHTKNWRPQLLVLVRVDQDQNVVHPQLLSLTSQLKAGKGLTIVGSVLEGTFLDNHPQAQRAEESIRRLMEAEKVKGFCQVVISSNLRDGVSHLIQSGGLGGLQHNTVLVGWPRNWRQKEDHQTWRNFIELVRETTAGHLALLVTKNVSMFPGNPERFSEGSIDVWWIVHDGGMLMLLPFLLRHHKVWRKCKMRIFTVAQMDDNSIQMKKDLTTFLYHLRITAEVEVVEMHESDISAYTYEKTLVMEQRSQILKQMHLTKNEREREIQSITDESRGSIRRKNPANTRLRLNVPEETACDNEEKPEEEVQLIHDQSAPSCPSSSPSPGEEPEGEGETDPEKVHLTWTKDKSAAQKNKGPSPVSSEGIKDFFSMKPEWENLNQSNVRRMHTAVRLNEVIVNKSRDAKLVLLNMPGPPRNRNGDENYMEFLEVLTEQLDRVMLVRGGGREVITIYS

[2] = target: HA-tagged mouse Task3 (mouse) (UniProt Q3LS21); assay: co-IP

- binding [1]: binds
Molecule: HA-tagged mouse Task3 (from UniProt Q3LS21 1-402)

- binding [2]: binds
B1: Flag-tagged rat KCC2 (protein, UniProt Q63633 1-1139)
chain: T1 sequence
